# The supplement of paper PMC8728848
# This is one part of the list.
# B1: Awp1 (Candida glabrata) (protein)
# chain: MSLITIFAFLIKATLVLSLDILTPTTLTGDQTFNEDVSVVSSLTLNDGSQYLFNNLLQIAPSSASVTANALAAVSVFTFSLPPSSSLSNSGTLIISNSNTGPSTEQHIVITPNVMANTGTITLSLAHTNTDSSSTLIIDPVTFYNTGTINYESIGSETNDPSLTGNILSIGSSGRTLQNLGTINLNAANSYYLLGTITENSGSINVQKGFLYVNALDFIGNTINLSTTTALAFISPVSQVVRVRGVFFGNIIASVGSSGTFSYNTQTGILTVTTNGVYSYDIGCGYNPALMSGQQETLSFQGNPYDTFLVLVNQPIPSDLTCAAVSSSITPSSSVEPSSSVVPSSSVEPSSSVEPSSSVEPSSSVEPSSSVEPSSSVEPSSSVEPSSSVEPSSSVEPSSSVEPSSSVEPSSSVEPSSSVEPSSSVEPSSSVEPSSSVEPSSSVEPSSSVEPSSSVEPSSLIVPSSSVEPSSSVLPSSSVVPSSSVEPSTPPIPSSSVEPSSSVVPSSPAVPSSSVEPSTPPIPSSSVVSASVFDTSSTLPSSPSVPPSSVSPSTISTPSSSAAPSSFCPTCVSSGTPPAPSSSAIVPTSSAGGGNGGDNREPGAAGQPGAAGQPGAAGQPGAAGQPGAAGQPGAAGQPGAAGQPGAAGQPGAAGQPGAAGQPGAGFGVGSEQPTPGAGAGSGSADGNQSGTGSGTGNGQQGSGQAGSGQAGSGQEGSGQAGSGQAGSGQAGSGQAGSGQAGLDNTASGQSEGGQASAMDGDQSGRDGQSNSGSLLQPNAQQGTGSGTGSDIGADQASGESPGQIGDAQPGSGTDQSSGRHSLAAEARTSQSHSLAADARTRSTTRQTSVIAPDTAPGTASGTAPGTAPGTAVVTTFHGCGTVNHKGMINILLALALLVLL
# Assays:
# Assay in all cases: glycan array binding signal (z-score within array); higher = stronger binding
# Conditions in all cases: glycan notation: IUPAC condensed, linker removed
# [1] = target: Man(a1-2)Man(a1-3)[Man(a1-2)Man(a1-6)]Man(a1-6)[Man(a1-2)Man(a1-2)Man(a1-3)]Man
# Outline: (§1)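 Glycan array binding is given as a within-array Z-score, which can be read as non-binding when negative. The arrays, 3228 of them, came from the Consortium for Functional Glycomics database and were retained only where the protein sequence was available. Z-scores were averaged across arrays of the same protein sequence at different concentrations or buffers and across linkers.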
# [2] = target: Man(a1-2)Man(a1-3)[Man(a1-2)Man(a1-6)]Man(a1-6)[Man(a1-2)Man(a1-2)Man(a1-3)]Man(b1-4)GlcNAc(b1-4)GlcNAc
# Outline: as §1
# [3] = target: Man(a1-2)Man(a1-3)[Man(a1-6)]Man(a1-6)[Man(a1-2)Man(a1-3)]Man(b1-4)GlcNAc(b1-4)GlcNAc
# Outline: as §1
# [4] = target: Man(a1-2)Man(a1-6)[Man(a1-3)]Man(a1-6)[Man(a1-2)Man(a1-2)Man(a1-3)]Man
# Outline: as §1
# [5] = target: Man(a1-2)Man(a1-6)[Man(a1-3)]Man(a1-6)[Man(a1-2)Man(a1-2)Man(a1-3)]Man(b1-4)GlcNAc(b1-4)GlcNAc
# Outline: as §1
# Man(a1-3)[Man(a1-6)]Man = target: Man(a1-3)[Man(a1-6)]Man
# Outline: as §1
# [6] = target: Man(a1-3)[Man(a1-6)]Man(a1-6)[Man(a1-2)Man(a1-3)]Man(b1-4)GlcNAc(b1-4)GlcNAc
# Outline: as §1
# [7] = target: Man(a1-3)[Man(a1-6)]Man(a1-6)[Man(a1-3)]Man
# Outline: as §1
# [8] = target: Man(a1-3)[Man(a1-6)]Man(a1-6)[Man(a1-3)]Man(b1-4)GlcNAc(b1-4)GlcNAc
# Outline: as §1
# [9] = target: Man(a1-3)[Man(a1-6)]Man(b1-4)GlcNAc(b1-4)GlcNAc
# Outline: as §1
# [10] = target: Man(a1-3)[Man(a1-6)]Man(b1-4)GlcNAc(b1-4)[Fuc(a1-6)]GlcNAc
# Outline: as §1
# Man(a1-6)Man = target: Man(a1-6)Man
# Outline: as §1
# Man(b1-4)GlcNAc = target: Man(b1-4)GlcNAc
# Outline: as §1
# MurNAc(b1-4)GlcNAc = target: MurNAc(b1-4)GlcNAc
# Outline: as §1
# Neu5Ac(a2-3)Gal = target: Neu5Ac(a2-3)Gal
# Outline: as §1
# [11] = target: Neu5Ac(a2-3)Gal(b1-3)GalNAc
# Outline: as §1
# [12] = target: Neu5Ac(a2-3)Gal(b1-3)GalNAc(b1-3)Gal(a1-4)Gal(b1-4)Glc
# Outline: as §1
# [13] = target: Neu5Ac(a2-3)Gal(b1-3)GalNAc(b1-4)Gal(b1-4)Glc
# Outline: as §1
# [14] = target: Neu5Ac(a2-3)Gal(b1-3)GalNAc(b1-4)[Neu5Ac(a2-3)]Gal(b1-4)Glc
# Outline: as §1
# [15] = target: Neu5Ac(a2-3)Gal(b1-3)GalNAc(b1-4)[Neu5Ac(a2-8)Neu5Ac(a2-3)]Gal(b1-4)Glc
# Outline: as §1
# [16] = target: Neu5Ac(a2-3)Gal(b1-3)GalNAc6S
# Outline: as §1
# [17] = target: Neu5Ac(a2-3)Gal(b1-3)GlcNAc
# Outline: as §1
# [18] = target: Neu5Ac(a2-3)Gal(b1-3)GlcNAc(b1-2)Man
# Outline: as §1
# [19] = target: Neu5Ac(a2-3)Gal(b1-3)GlcNAc(b1-2)Man(a1-3)[GlcNAc(b1-4)][Neu5Ac(a2-3)Gal(b1-3)GlcNAc(b1-2)Man(a1-6)]Man(b1-4)GlcNAc(b1-4)GlcNAc
# Outline: as §1
# [20] = target: Neu5Ac(a2-3)Gal(b1-3)GlcNAc(b1-2)Man(a1-3)[Neu5Ac(a2-3)Gal(b1-3)GlcNAc(b1-2)Man(a1-6)]Man(b1-4)GlcNAc(b1-4)GlcNAc
# Outline: as §1
# [21] = target: Neu5Ac(a2-3)Gal(b1-3)GlcNAc(b1-2)[Neu5Ac(a2-3)Gal(b1-3)GlcNAc(b1-4)]Man(a1-6)[Neu5Ac(a2-3)Gal(b1-3)GlcNAc(b1-2)Man(a1-3)]Man(b1-4)GlcNAc(b1-4)GlcNAc
# Outline: as §1
# [22] = target: Neu5Ac(a2-3)Gal(b1-3)GlcNAc(b1-3)Gal(b1-3)GlcNAc
# Outline: as §1
# [23] = target: Neu5Ac(a2-3)Gal(b1-3)GlcNAc(b1-3)Gal(b1-4)GlcNAc
# Outline: as §1
# [24] = target: Neu5Ac(a2-3)Gal(b1-3)GlcNAc(b1-3)GalNAc
# Outline: as §1
# [25] = target: Neu5Ac(a2-3)Gal(b1-3)GlcNAc(b1-6)GalNAc
# Outline: as §1
binder,measurement,setting,value
B1,glycan array binding signal (z-score),[1],-0.496
same,glycan array binding signal (z-score),[2],0.978
same,glycan array binding signal (z-score),[3],1.36
same,glycan array binding signal (z-score),[4],-0.667
same,glycan array binding signal (z-score),[5],-0.025
same,glycan array binding signal (z-score),Man(a1-3)[Man(a1-6)]Man,0.566
same,glycan array binding signal (z-score),[6],1.59
same,glycan array binding signal (z-score),[7],-0.14
same,glycan array binding signal (z-score),[8],-0.067
same,glycan array binding signal (z-score),[9],-0.765
same,glycan array binding signal (z-score),[10],1.25
same,glycan array binding signal (z-score),Man(a1-6)Man,1.11
same,glycan array binding signal (z-score),Man(b1-4)GlcNAc,0.53
same,glycan array binding signal (z-score),MurNAc(b1-4)GlcNAc,-1.87
same,glycan array binding signal (z-score),Neu5Ac(a2-3)Gal,-0.807
same,glycan array binding signal (z-score),[11],-0.356
same,glycan array binding signal (z-score),[12],1.12
same,glycan array binding signal (z-score),[13],-1.54
same,glycan array binding signal (z-score),[14],-1.49
same,glycan array binding signal (z-score),[15],-2.52
same,glycan array binding signal (z-score),[16],0.204
same,glycan array binding signal (z-score),[17],-0.084
same,glycan array binding signal (z-score),[18],-0.553
same,glycan array binding signal (z-score),[19],0.97
same,glycan array binding signal (z-score),[20],-0.553
same,glycan array binding signal (z-score),[21],-0.176
same,glycan array binding signal (z-score),[22],-0.509
same,glycan array binding signal (z-score),[23],0.432
same,glycan array binding signal (z-score),[24],0.909
same,glycan array binding signal (z-score),[25],0.214

# Reformatted with tabs: part of the list above.
binder	measurement	setting	value
B1	glycan array binding signal (z-score)	[17]	-0.084
same	glycan array binding signal (z-score)	[18]	-0.553
